Experimental data: patent EP4810514A1
Results are given in words; binding and its absence hold for the method and conditions named. Some binding calls cover weakened binding; strength is not graded here.

Protein sequences, listed by entry. Tags and fused reporters are not part of them.
UniProt P40763: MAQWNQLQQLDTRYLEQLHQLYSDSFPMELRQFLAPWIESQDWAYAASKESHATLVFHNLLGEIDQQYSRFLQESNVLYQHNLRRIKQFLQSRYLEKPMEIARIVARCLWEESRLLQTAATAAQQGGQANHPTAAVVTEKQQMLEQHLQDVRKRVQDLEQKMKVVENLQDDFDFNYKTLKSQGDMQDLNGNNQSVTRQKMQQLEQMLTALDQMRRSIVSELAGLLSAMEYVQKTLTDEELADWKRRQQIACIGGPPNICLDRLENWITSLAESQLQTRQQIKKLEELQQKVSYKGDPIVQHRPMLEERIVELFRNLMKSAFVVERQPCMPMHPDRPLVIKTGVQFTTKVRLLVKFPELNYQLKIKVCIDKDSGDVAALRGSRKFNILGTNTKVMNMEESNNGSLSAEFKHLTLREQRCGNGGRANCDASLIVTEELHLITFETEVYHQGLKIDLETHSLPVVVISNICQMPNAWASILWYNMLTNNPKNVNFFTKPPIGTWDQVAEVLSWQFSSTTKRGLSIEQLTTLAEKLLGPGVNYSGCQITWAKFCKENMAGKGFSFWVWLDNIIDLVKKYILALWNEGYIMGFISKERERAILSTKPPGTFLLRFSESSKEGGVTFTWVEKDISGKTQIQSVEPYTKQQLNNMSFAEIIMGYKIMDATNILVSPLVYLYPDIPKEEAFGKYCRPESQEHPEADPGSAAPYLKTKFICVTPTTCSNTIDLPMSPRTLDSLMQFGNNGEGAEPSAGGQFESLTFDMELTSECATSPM

Target: STAT3 (UniProt P40763)
Test: yeast display library selection

binding: binds
B1: ETI01_A4 nanobody (VHH)
VHH: HVQLVESGGGSVQAGGSLRLSCAASGFNSGDSCIGWFRQVPGKEREGVSVISSGGEIRYYADSVKGRFTISQDNTKNTLYLQMNSLKPEDTAMYYCATSVFLCYPRTWFNRYMYNSWGQGTQVTVSS
